Results from the supplement of paper PMC12819154, “High-throughput peptide-centric local stability assay extends protein–ligand identification to membrane proteins, tissues and bacteria” (Nature Structural & Molecular Biology, 2025).
The other results are listed elsewhere or left out. Most values lie at the level of the controls, where differences are scatter.

Sequences of proteins named here, by UniProt entry; tags and fusion partners are left off. A change or cut given only in a name is not applied to a line headed by its entry.
UniProt Q14258, whole entry: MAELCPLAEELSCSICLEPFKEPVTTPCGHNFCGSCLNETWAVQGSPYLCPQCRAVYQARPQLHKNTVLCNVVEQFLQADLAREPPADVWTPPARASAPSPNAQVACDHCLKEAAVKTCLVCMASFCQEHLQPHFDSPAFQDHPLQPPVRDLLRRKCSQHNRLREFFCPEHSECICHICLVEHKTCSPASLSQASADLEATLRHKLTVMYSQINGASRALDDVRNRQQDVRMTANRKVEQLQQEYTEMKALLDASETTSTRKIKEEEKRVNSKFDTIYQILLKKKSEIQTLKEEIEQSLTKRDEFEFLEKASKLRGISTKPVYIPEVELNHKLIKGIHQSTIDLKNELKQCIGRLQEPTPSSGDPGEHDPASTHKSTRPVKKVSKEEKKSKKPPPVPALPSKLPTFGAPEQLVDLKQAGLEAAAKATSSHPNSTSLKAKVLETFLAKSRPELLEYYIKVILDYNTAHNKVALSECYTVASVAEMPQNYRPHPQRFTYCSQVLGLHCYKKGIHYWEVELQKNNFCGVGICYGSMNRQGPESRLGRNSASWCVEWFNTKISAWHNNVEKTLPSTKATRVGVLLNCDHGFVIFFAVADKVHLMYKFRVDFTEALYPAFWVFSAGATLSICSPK
UniProt Q13769: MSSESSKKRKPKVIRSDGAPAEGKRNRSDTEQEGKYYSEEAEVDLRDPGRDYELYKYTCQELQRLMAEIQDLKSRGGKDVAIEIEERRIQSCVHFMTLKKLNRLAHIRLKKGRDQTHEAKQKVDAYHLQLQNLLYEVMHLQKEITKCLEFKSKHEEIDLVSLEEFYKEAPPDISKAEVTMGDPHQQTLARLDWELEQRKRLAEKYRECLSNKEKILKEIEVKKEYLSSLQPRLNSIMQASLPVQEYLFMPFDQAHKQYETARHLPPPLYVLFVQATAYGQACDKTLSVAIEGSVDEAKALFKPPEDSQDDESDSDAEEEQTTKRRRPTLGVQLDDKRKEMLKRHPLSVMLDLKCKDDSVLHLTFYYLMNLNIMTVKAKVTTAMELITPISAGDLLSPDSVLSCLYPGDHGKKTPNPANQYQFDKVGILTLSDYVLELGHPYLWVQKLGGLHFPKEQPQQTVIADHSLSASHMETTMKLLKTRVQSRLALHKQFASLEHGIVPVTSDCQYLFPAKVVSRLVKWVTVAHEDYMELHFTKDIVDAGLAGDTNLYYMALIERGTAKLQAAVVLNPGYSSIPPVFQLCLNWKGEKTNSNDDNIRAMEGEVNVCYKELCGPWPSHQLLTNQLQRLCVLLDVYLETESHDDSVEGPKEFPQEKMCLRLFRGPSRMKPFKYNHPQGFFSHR
UniProt Q13227: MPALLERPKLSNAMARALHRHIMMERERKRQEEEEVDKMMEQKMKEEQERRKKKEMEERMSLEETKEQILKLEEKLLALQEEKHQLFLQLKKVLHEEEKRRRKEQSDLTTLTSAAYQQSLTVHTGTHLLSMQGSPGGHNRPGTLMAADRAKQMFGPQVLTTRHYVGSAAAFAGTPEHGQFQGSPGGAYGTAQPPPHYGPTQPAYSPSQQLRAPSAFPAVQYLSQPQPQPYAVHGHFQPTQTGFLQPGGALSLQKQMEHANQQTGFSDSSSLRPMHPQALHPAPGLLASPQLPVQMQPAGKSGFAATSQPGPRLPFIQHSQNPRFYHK
UniProt Q13158: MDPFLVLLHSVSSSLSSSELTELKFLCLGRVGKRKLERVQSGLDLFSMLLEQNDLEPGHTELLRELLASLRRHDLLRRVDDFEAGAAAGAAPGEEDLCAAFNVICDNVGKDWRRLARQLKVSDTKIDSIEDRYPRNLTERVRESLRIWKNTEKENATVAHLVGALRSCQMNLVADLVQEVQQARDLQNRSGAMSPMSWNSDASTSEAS
UniProt Q15004: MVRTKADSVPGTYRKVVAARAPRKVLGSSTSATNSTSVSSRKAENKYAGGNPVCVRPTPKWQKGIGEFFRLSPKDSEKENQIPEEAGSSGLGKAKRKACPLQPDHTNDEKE
UniProt Q14254: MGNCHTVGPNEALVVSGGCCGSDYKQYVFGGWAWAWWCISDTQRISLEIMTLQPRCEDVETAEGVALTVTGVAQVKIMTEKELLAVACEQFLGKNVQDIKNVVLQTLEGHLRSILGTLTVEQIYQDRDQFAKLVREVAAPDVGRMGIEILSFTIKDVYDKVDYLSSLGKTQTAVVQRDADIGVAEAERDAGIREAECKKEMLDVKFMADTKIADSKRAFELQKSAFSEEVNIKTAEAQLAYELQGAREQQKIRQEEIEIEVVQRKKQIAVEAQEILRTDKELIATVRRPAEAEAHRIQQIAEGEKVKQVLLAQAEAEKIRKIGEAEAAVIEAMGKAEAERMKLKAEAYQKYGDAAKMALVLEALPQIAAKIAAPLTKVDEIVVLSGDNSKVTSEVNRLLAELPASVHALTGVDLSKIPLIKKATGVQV
UniProt Q15036: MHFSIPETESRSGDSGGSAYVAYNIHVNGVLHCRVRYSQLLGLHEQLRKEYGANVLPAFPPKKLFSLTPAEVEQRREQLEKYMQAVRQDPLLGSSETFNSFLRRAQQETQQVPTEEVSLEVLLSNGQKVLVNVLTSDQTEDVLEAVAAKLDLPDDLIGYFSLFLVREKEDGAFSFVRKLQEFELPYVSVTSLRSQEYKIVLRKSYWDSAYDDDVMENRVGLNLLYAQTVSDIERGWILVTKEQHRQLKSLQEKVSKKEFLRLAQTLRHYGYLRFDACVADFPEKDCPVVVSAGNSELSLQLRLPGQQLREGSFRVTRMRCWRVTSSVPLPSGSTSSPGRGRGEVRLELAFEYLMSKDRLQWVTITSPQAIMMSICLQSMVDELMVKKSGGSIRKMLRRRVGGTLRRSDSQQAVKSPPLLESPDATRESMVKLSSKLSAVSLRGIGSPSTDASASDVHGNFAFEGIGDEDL
UniProt Q14202: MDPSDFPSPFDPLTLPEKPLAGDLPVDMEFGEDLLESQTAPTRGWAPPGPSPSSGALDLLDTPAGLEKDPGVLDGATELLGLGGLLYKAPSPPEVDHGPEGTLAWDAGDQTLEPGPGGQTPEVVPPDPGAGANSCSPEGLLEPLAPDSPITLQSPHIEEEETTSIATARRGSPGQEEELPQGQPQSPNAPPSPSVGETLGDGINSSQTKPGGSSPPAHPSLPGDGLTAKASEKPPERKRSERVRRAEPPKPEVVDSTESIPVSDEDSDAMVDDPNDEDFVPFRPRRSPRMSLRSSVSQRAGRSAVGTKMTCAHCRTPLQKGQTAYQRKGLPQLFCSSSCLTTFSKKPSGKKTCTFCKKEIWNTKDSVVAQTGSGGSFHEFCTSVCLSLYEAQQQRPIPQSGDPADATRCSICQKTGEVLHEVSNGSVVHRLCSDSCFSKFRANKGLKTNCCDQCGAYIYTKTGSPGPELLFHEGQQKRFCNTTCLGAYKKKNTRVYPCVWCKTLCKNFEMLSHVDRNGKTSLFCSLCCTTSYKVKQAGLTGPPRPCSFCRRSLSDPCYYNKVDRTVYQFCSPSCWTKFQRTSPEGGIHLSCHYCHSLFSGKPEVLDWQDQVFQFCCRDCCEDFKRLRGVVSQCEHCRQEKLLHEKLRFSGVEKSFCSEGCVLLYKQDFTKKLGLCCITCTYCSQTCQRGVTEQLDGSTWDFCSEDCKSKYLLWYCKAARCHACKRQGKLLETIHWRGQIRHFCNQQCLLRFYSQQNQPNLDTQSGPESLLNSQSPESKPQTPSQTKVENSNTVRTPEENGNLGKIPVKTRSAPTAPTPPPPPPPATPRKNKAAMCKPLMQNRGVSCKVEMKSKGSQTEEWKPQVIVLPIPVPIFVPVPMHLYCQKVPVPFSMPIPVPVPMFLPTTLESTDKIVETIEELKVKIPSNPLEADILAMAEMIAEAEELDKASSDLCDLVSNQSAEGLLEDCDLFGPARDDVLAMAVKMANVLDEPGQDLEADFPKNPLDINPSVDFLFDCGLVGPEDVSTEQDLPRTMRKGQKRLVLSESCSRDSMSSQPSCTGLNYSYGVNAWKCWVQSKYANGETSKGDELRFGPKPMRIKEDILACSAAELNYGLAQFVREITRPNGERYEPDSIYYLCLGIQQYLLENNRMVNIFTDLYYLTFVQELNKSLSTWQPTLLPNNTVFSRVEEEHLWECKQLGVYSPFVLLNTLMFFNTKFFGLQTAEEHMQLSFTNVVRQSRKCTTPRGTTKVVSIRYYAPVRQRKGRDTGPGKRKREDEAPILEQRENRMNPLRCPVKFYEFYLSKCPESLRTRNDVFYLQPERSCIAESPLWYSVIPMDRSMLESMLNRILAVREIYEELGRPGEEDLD
UniProt Q13685: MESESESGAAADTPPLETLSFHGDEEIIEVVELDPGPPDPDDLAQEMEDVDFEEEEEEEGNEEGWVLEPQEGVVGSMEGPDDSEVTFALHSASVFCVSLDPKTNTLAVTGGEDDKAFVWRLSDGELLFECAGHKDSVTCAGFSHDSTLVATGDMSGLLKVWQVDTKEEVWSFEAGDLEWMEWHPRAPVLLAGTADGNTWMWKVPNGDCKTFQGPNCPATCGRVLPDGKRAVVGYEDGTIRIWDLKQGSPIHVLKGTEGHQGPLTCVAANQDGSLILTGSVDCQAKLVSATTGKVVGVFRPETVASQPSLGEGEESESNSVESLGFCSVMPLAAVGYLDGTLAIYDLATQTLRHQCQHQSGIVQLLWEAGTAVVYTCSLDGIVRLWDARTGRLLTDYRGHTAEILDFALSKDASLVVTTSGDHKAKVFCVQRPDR
UniProt Q13395: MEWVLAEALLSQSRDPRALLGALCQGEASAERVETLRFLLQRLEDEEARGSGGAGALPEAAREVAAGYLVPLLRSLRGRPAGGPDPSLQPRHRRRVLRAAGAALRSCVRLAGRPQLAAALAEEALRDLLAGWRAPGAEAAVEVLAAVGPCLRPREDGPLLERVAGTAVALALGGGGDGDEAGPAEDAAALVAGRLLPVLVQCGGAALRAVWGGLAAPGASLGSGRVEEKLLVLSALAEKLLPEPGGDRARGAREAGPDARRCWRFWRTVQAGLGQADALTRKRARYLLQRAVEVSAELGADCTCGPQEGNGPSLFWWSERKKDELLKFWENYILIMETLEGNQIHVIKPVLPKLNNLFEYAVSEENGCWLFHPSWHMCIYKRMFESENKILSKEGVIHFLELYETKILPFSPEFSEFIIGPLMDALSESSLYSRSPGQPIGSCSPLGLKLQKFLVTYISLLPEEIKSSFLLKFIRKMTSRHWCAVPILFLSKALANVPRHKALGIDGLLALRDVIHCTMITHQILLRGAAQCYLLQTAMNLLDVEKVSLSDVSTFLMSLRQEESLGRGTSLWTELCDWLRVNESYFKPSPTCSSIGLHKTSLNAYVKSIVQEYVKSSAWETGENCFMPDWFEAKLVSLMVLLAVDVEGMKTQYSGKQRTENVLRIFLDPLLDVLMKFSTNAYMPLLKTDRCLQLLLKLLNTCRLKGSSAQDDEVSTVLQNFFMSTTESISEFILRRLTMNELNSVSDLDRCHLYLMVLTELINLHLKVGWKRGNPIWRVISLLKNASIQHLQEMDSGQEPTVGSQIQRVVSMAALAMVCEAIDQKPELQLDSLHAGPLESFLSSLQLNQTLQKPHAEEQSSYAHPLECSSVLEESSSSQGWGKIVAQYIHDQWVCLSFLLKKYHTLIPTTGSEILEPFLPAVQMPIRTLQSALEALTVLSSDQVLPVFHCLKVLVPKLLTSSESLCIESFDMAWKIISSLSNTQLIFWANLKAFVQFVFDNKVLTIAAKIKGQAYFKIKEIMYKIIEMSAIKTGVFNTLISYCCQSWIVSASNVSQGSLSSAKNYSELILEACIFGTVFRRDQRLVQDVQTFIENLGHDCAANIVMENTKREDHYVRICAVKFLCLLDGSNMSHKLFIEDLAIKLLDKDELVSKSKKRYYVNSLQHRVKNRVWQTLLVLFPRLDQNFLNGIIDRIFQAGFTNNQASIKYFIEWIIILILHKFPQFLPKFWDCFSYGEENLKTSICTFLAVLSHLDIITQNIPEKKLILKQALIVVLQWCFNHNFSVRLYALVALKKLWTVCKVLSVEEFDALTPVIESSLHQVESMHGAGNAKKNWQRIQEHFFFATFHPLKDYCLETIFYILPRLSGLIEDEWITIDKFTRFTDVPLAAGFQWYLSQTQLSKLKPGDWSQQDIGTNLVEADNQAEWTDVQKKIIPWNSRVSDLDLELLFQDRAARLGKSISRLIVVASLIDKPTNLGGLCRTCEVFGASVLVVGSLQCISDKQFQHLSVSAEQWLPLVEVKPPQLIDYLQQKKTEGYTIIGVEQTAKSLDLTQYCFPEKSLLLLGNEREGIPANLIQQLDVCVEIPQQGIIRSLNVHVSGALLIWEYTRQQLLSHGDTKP
UniProt Q13162: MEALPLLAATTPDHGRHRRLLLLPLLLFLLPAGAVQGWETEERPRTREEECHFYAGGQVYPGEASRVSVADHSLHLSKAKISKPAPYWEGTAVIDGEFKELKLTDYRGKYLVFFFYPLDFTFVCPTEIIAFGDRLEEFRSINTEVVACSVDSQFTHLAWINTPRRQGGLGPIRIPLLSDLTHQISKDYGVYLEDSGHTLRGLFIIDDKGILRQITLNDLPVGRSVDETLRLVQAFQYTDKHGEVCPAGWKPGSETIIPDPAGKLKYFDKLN

Each target was assayed with CN[C@@H]1C[C@H]2O[C@@](C)([C@@H]1OC)n1c3ccccc3c3c4c(c5c6ccccc6n2c5c31)C(=O)NC4 [staurosporine] (assay: log2 fold change of tryptic peptide abundance, ligand vs vehicle (limited proteolysis) (log2 ratio); higher = more trypsin-susceptible (destabilized)). Conditions: ligand concentration: 20 uM; sample: K562 cleared lysate; digestion: 4 min, 22 C (HT-PELSA RT4min, Orbitrap Astral).

Row | Target | log2 fold change
1 | TRIM25 (peptide sequence: VLETFLAK, peptide start residue: 440) (UniProt Q14258) | 0.295
2 | MCM6 (peptide sequence: VYPYLCR, peptide start residue: 86) (UniProt Q14566) | 0.26
3 | MRPL49 (peptide sequence: IKGYFDQELK, peptide start residue: 149) (UniProt Q13405) | 0.489
4 | ADAM9 (peptide sequence: QPQQFPSRPPPPQPK, peptide start residue: 782) (UniProt Q13443) | -0.468
5 | THOC5 (peptide sequence: YTCQELQR, peptide start residue: 57) (UniProt Q13769) | -0.38
6 | GPS2 (peptide sequence: HQLFLQLK, peptide start residue: 84) (UniProt Q13227) | 0.557
7 | UniProt Q14241 (peptide sequence: NIQFAHANKPK, peptide start residue: 673) | 0.399
8 | STX5 (peptide sequence: HLQTHSNTIVVSLQSK, peptide start residue: 167) (UniProt Q13190) | -0.158
9 | SNTA1 (peptide sequence: TIVFIIHSFLSAK, peptide start residue: 485) (UniProt Q13424) | 0.24
10 | TRA2A (peptide sequence: IDDSKEAMER, peptide start residue: 170) (UniProt Q13595) | 0.316
11 | ARFRP1 (peptide sequence: TTFLEQSK, peptide start residue: 31) (UniProt Q13795) | 0.344
12 | FADD (peptide sequence: IDSIEDRYPR, peptide start residue: 126) (UniProt Q13158) | 0.291
13 | UniProt Q14197 (peptide sequence: FHLATAEWIAEPVRQK, peptide start residue: 103) | -0.273
14 | SKP2 (peptide sequence: LLSQGVIAFR, peptide start residue: 155) (UniProt Q13309) | -0.752
15 | JOSD1 (peptide sequence: GYEAVWWDK, peptide start residue: 95) (UniProt Q15040) | 0.156
16 | MTMR3 (peptide sequence: AGIEIQEGKEDPLLEK, peptide start residue: 710) (UniProt Q13615) | -0.307
17 | UniProt Q15004 (peptide sequence: KACPLQPDHTNDEKE, peptide start residue: 97) | -0.219
18 | EFTUD2 (peptide sequence: CFAETPNKK, peptide start residue: 674) (UniProt Q15029) | 0.426

Row | Target | log2 fold change
19 | UniProt Q15042 (peptide sequence: LEEIIHQITNVEALIAR, peptide start residue: 829) | 0.835
20 | FLOT2 (peptide sequence: QVLLAQAEAEKIR, peptide start residue: 308) (UniProt Q14254) | -0.255
21 | ATM (peptide sequence: LIRDPETIK, peptide start residue: 33) (UniProt Q13315) | 0.543
22 | UniProt Q13247 (peptide sequence: LIVENLSSRCSWQDLK, peptide start residue: 106) | -0.441
23 | MTMR1 (peptide sequence: NVERDPHFILDVPLGVISR, peptide start residue: 138) (UniProt Q13613) | -0.335
24 | TOP3A (peptide sequence: AAMEMALR, peptide start residue: 24) (UniProt Q13472) | -0.431
25 | ITGB3BP (peptide sequence: SLKLDGLLEENSFDPSKITR, peptide start residue: 6) (UniProt Q13352) | -0.44
26 | UniProt Q13416 (peptide sequence: DQNYVEIMGR, peptide start residue: 67) | -0.506
27 | SNX17 (peptide sequence: SGDSGGSAYVAYNIHVNGVLHCR, peptide start residue: 12) (UniProt Q15036) | -0.516
28 | RASA3 (peptide sequence: EKQEAAVPLVR, peptide start residue: 330) (UniProt Q14644) | 0.898
29 | SAFB2 (peptide sequence: VTPDIEESLLEPENEK, peptide start residue: 200) (UniProt Q14151) | 0.197
30 | ZMYM3 (peptide sequence: REDEAPILEQR, peptide start residue: 1276) (UniProt Q14202) | 0.488
31 | UBAP2L (peptide sequence: GNWEQPQNQNQTQHK, peptide start residue: 12) (UniProt Q14157) | -0.139
32 | CTBP1 (peptide sequence: IRGAALDVHESEPFSFSQGPLK, peptide start residue: 284) (UniProt Q13363) | -0.166
33 | AAMP (peptide sequence: AVVGYEDGTIR, peptide start residue: 230) (UniProt Q13685) | 0.185
34 | TARBP1 (peptide sequence: GRPAGGPDPSLQPR, peptide start residue: 78) (UniProt Q13395) | -0.271
35 | HERC3 (peptide sequence: GYWAAHSGQLSAR, peptide start residue: 343) (UniProt Q15034) | 0.147
36 | PRDX4 (peptide sequence: TREEECHFYAGGQVYPGEASR, peptide start residue: 46) (UniProt Q13162) | -0.174

Given with each value named: part of the list above.
UniProt Q13247 (peptide sequence: LIVENLSSRCSWQDLK, peptide start residue: 106)
  log2 fold change: -0.441
SNX17 (peptide sequence: SGDSGGSAYVAYNIHVNGVLHCR, peptide start residue: 12) (UniProt Q15036)
  log2 fold change: -0.516
